Results are given in words; binding and its absence hold for the method and conditions named. Binding seen in cells or lysates may run through a third protein. Binding can be weak; no strength is given.
Molecular target: Np65-EGFP
Test: co-IP; HeLa cells co-transfected with Np65-EGFP and MANF vectors, treated with or without thapsigargin or LPS; lysates immunoprecipitated with anti-GFP antibody, immunoblot

B1: MANF expressed from a vector in HeLa cells (protein, UniProt P55145 25-182)
chain: LRPGDCEVCISYLGRFYQDLKDRDVTFSPATIENELIKFCREARGKENRLCYYIGATDDAATKIINEVSKPLAHHIPVEKICEKLKKKDSQICELKYDKQIDLSTVDLKKLRVKELKKILDDWGETCKGCAEKSDYIRKINELMPKYAPKAASARTDL
With B1 the binding was “binds”.

Reference: article PMC7702011
